# Over roughly 33,000 sequences, “E-score (-0.5 to 0.5)” has its median near -0.015; the highest 2% begin near 0.3. This is one part of the list.
# Target: T1, Abf1 (UniProt P14164)
# T1 sequence: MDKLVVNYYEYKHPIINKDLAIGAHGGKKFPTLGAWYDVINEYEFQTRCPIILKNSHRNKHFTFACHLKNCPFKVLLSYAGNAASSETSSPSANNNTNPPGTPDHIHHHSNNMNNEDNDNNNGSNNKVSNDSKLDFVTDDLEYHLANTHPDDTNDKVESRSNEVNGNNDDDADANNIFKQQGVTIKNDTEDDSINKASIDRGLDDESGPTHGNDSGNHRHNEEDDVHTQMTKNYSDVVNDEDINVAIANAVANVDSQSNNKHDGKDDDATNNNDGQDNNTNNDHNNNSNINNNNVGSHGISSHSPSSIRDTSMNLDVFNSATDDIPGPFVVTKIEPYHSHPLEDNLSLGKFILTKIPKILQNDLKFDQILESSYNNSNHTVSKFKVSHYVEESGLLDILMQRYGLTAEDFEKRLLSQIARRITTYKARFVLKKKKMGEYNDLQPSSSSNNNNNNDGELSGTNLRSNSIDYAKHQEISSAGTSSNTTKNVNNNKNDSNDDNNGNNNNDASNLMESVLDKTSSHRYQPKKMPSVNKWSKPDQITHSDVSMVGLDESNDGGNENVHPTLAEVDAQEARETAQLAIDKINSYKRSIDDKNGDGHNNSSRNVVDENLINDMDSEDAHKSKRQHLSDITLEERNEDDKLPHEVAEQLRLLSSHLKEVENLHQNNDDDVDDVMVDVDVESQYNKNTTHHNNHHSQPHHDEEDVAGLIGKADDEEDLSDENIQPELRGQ
# Experiment: PBM E-score (8-mer binding enrichment) (E-score (-0.5 to 0.5)); higher = stronger / more preferred TF binding
# Settings: protein concentration: 200 nM; construct: GST-full length
# In short: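 Yeast transcription factors, full-length or as DNA-binding domains, were expressed with a GST tag using PURExpress in vitro transcription/translation. At about 100-200 nM they were applied to universal all-10-mer Agilent arrays, double-stranded by primer extension on fresh or once-stripped slides. Fluorescent anti-GST detected bound protein, and masliner normalised the scans. E-scores for ungapped eight-base words, pooled with reverse complements, came from the Universal PBM Analysis Suite.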
row,Sequence,PBM E-score
1,CCTTGTTA,-0.0617
2,ATCTGATG,0.0857
3,ATAATCGG,0.21
4,GTATCTAA,0.158
5,TCCGTACA,0.368
6,GAACATAC,0.114
7,ACAAAAAC,0.0631
8,GGCAACAC,-0.224
9,AGGCAGTA,0.0109
10,TAACGAAA,0.243
11,GACTACAA,0.0332
12,ACGAGCGA,0.122
13,CAGGAGGA,-0.326
14,GAATGGCA,-0.0593
15,CGCAGATA,0.0501
16,ATCTCGAC,0.067
17,CACAGCGA,0.127
18,CCGTTACC,0.0765
19,ATACGCTA,-0.0566
20,AGACGGAG,-0.0967
21,GATATGAA,0.191
22,GTCGAATA,0.0127
23,CATAATGG,-0.041
24,ATCTTAGA,0.08
25,ATTATGTA,0.239

row,Sequence,PBM E-score
1,ACTCCCCC,-0.34
2,ACTTGAAC,0.0546
3,GTGACGCA,0.103
4,AAGTATAC,0.0628
5,ACGTCTGG,-0.0845
6,CACTAATG,0.134
7,ACCAGTCT,-0.188
8,ACTCTTCA,0.0659
9,ACCGGTTG,0.0539
10,CGTCTCTC,0.162
11,AACACGGC,0.122
12,AGTCTGGG,-0.236
13,AACTCTTG,0.102
14,ATAAGGCC,-0.0789
15,AGCAATGC,-0.0441
16,AGTCGATA,0.0594
17,AGATGGGA,-0.229
18,AGACAGAT,-0.00326
19,AAACGAAG,0.108
20,CGACGTTC,0.0472
21,GATCAAAA,0.0756
22,GCGACTCC,-0.251
23,TGTCATAA,0.237
24,CTCTGCAA,-0.0134
25,ATTCCTAA,0.12

row,Sequence,PBM E-score
1,TGGCTAAA,0.0139
2,GTAAAAAA,0.109
3,GTGCGCCA,-0.0984
4,AGGCGGAC,-0.314
5,AGTTACGA,0.296
6,CGACATGC,0.022
7,CGAGGCGA,-0.0356
8,AGCCCTCC,-0.235
9,AATACACG,0.0382
10,AACTTTAG,0.0369
11,AAGCTCAA,-0.0707
12,CTCTCTTC,-0.0447
13,GCTGAAGC,-0.182
14,GATCTTAC,0.0982
15,GATATTAA,0.162
16,AGCGAGCG,0.0666
17,CTTCAAGA,0.078
18,GACACGTC,0.153
19,GATCTTAA,0.16
20,ACGCTCCG,-0.0758
21,AGGCTTCG,-0.06
22,ACGAGATC,0.218
23,GCACGCGC,-0.0247
24,AGACTGAC,-0.172
25,CTTGCCTA,-0.0121

row,Sequence,PBM E-score
1,AGTAATTG,0.0426
2,GTTAAGGA,0.0551
3,ACTGGGCT,-0.175
4,ATTGCCTA,-0.243
5,CGCGTCCC,-0.0883
6,CACCGGCA,-0.0788
7,CTGCGTCA,-0.122
8,AGTTCGTC,0.164
9,ATGTATAG,-0.054
10,AGAGCGCA,-0.177
11,AACTCGAC,-0.0456
12,ATCCCAAT,0.0553
13,AATTTGGG,0.11
14,AGTGCCTA,-0.0364
15,ACTGCGAG,-0.13
16,AAGAGGGT,-0.141
17,AGTCAATC,0.108
18,CGGGACGC,-0.247
19,AAGAGCTC,0.143
20,CTAGCATC,-0.15
21,ACAACTGT,-0.0665
22,AAGTGCAG,-0.266
23,CACCTAGG,-0.23
24,ACCCGATC,0.00161
25,ACTACACC,-0.0398

row,Sequence,PBM E-score
1,AGGTCTCC,-0.081
2,CAATAGAA,-0.0514
3,ATCTCCTA,-0.212
4,CTGAGCCC,-0.0558
5,CTCTCTAA,-0.0786
6,ATGGGGGG,-0.367
7,GTGGCAAA,-0.0476
8,ACTACGGG,-0.0138
9,ACGTGCAC,0.112
10,GCCTGAGC,-0.144
11,AGGAACGC,-0.183
12,GAGCATTA,0.00142
13,CTTTCGGA,-0.0684
14,AGGGTTAA,-0.104
15,CTGAGGAA,-0.227
16,GGTCTTGA,-0.151
17,CTGCTATC,0.093
18,AAAGCCAG,-0.24
19,AATTCGGG,-0.0203
20,GGCCGCTA,-0.151
21,ACAACCCG,-0.00349
22,AAAACGCA,0.00195
23,ACAGAATG,0.0944
24,ACATTTGC,0.0282
25,AGCAAGTA,0.0322

row,Sequence,PBM E-score
1,ACCTGATG,-0.104
2,AATGGACC,0.104
3,ATAGTATC,0.25
4,CAGCCAGG,0.00939
5,ACGCCATA,-0.0497
6,CCTCTAGC,-0.25
7,CCGCATGA,-0.0321
8,CCCCGTCC,-0.136
9,AAGCCGCG,-0.0806
10,GAGAATAC,0.165
11,CATGACAA,0.238
12,TCTTGAAA,0.275
13,CTAGGCCA,-0.215
14,AACACGTG,0.241
15,GGTCTTAA,-0.16
16,ACTGCCAG,-0.0989
17,CTTTGTAC,0.228
18,ATACCCAT,-0.086
19,ACACAAGC,-0.125
20,TGACTTAA,0.061
21,CATCCTAA,0.078
22,AAATTCAA,0.119
23,CGAATCCC,0.0659
24,ACACTACT,0.0557
25,AGATGCGG,-0.0364

row,Sequence,PBM E-score
1,GGCCAAAA,-0.0557
2,CCAACCTA,-0.192
3,CATAACAC,0.0508
4,CACCATAG,-0.276
5,CAGCTGCG,-0.144
6,CATGCAAA,0.0125
7,CATCTCAG,0.0453
8,ACGACACC,0.283
9,AAGGGCGG,-0.28
10,CGTACACG,0.245
11,AGCACTCA,-0.0802
12,CATCATCA,0.254
13,GACATTTA,0.0126
14,ACGCGGAA,-0.0474
15,AACCACCG,-0.0015
16,CTATCGAA,0.00268
17,GTACTTCA,0.158
18,ACCGTAGA,0.219
19,AACGCAGG,-0.179
20,CCGGTATC,0.00781
21,CGTTGGAC,0.0299
22,AAAGAAGA,-0.0112

# Looked up above:
# PBM E-score, GTAAAAAA is entered as 0.109
# PBM E-score, ATCCCAAT is entered as 0.0553
# PBM E-score, ATGTATAG is entered as -0.054
# PBM E-score, CATGCAAA is entered as 0.0125
# PBM E-score, TGACTTAA is entered as 0.061
# PBM E-score, ACTGGGCT is entered as -0.175
# PBM E-score, ACGCTCCG is entered as -0.0758

# — the supplement of paper PMC3334620
